Test in all cases: co-IP
The target in assay [1] is ZAP-L-FLAG (human) (UniProt Q7Z2W4).
Assay [2] addresses T1, RIG-I-FLAG (human) (UniProt O95786).
T1 sequence: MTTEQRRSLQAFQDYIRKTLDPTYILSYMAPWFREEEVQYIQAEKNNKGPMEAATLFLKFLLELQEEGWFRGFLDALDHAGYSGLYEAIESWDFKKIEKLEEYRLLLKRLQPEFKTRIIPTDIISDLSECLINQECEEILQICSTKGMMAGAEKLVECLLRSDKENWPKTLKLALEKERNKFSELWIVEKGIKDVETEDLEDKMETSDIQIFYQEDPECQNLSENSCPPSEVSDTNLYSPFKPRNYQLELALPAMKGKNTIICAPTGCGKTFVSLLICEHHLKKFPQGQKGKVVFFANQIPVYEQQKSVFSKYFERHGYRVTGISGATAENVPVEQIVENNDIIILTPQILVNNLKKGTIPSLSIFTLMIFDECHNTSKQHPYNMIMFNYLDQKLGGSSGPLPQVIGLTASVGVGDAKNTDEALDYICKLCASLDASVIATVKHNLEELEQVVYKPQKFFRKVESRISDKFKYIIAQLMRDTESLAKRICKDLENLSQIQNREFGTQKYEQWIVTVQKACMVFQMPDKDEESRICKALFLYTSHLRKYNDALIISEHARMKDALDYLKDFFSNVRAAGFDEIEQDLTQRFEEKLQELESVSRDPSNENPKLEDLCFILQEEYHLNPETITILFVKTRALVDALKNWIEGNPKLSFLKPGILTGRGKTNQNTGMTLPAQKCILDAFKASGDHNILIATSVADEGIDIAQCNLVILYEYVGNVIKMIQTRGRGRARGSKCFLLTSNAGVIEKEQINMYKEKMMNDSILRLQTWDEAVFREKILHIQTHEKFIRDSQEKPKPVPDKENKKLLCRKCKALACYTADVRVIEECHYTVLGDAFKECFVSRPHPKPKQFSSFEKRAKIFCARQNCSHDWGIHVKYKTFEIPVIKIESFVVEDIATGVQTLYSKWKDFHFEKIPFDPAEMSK

Sequences of proteins named here, by UniProt entry; tags and fusion partners are left off. A change or cut given only in a name is not applied to a line headed by its entry. Residues count along the entry.
UniProt Q7Z2W4: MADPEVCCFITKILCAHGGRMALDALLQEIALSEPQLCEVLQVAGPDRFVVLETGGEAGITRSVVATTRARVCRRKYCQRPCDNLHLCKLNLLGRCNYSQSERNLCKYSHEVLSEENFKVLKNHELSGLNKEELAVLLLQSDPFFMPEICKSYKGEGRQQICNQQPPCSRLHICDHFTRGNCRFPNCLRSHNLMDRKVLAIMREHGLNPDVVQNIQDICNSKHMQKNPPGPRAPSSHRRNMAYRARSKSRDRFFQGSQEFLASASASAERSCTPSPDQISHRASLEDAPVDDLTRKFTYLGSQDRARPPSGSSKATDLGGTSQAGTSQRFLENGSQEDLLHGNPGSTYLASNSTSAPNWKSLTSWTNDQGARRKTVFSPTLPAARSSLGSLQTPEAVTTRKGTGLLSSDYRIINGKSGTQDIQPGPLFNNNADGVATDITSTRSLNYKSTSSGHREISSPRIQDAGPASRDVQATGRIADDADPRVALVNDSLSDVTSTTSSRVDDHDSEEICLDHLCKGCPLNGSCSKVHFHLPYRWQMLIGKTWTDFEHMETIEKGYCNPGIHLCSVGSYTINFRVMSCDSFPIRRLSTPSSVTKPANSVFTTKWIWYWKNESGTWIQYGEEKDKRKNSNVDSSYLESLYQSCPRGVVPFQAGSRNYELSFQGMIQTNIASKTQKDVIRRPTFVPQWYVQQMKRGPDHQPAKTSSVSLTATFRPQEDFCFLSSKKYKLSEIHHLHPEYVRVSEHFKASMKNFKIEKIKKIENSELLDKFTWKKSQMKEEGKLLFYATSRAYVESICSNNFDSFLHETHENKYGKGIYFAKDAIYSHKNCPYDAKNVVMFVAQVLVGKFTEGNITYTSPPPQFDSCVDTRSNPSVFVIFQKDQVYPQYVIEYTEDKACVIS
UniProt Q86WV6: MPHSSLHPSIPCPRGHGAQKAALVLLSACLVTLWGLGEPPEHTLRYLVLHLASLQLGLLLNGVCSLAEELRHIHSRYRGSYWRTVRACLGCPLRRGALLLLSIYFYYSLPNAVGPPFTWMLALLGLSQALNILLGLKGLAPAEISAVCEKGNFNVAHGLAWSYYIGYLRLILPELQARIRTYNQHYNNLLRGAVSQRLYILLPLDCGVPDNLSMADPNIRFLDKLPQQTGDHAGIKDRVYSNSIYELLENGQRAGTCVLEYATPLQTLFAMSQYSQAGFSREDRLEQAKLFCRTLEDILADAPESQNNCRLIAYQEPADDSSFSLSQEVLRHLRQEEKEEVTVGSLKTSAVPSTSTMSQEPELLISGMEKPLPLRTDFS
UniProt Q8IUD6: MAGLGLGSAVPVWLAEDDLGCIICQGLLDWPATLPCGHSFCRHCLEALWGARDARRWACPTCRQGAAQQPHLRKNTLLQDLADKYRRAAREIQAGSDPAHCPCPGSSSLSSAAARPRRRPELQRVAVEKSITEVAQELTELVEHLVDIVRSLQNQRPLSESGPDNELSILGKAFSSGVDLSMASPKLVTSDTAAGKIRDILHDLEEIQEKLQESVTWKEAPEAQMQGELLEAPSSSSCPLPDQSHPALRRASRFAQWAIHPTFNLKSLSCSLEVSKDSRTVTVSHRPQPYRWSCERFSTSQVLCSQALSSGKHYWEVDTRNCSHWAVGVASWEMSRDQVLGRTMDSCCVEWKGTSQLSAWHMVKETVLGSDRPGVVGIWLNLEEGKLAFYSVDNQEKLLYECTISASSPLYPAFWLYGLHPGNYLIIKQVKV
UniProt Q14258: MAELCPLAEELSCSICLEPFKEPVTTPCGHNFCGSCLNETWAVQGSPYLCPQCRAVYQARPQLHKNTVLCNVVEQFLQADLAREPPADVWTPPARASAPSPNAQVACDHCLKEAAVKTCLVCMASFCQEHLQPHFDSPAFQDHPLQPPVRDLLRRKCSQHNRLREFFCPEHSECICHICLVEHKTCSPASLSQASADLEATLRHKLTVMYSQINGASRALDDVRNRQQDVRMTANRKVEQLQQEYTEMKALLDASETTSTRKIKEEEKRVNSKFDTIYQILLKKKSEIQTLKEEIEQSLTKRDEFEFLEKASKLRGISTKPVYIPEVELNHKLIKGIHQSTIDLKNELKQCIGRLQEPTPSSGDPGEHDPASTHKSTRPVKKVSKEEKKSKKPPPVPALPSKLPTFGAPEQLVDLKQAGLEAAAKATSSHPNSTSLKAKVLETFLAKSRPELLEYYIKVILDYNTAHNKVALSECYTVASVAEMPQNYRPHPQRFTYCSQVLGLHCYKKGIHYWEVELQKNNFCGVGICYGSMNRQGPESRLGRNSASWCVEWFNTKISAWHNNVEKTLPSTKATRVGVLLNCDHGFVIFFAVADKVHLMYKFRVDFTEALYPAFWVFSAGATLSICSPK
UniProt Q6UXG8, residues 35-535: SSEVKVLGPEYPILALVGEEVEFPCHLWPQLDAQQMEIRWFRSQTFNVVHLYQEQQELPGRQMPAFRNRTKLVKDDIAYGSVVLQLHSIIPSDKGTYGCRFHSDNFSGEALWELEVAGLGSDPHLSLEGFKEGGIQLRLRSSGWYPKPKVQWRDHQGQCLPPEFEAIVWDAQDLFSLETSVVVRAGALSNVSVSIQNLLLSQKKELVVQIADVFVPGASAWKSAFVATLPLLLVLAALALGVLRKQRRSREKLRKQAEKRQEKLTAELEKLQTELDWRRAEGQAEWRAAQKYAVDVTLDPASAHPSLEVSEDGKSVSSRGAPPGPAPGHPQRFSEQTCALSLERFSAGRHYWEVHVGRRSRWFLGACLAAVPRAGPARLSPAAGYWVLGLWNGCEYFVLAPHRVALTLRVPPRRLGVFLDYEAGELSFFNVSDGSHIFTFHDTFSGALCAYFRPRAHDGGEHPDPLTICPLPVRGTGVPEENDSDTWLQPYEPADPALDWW
UniProt Q61510: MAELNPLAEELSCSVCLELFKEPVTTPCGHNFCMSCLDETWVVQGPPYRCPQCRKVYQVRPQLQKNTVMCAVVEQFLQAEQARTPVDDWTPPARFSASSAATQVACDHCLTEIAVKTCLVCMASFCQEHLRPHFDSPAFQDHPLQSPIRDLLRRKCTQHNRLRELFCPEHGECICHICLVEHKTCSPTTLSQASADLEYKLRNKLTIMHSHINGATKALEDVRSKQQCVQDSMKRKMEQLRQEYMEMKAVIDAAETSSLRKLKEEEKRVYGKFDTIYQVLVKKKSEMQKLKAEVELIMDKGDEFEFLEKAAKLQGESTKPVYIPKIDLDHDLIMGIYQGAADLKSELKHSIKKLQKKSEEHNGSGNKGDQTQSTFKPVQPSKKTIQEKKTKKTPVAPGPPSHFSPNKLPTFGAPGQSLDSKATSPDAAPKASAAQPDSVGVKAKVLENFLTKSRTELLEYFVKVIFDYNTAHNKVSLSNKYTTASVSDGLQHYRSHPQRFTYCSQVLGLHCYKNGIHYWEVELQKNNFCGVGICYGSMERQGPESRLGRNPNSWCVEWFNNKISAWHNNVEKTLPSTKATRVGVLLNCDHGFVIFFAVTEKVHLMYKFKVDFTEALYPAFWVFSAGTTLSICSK

Assay [3] addresses STING-FLAG (human) (UniProt Q86WV6).
The target of assay [4] is T2, mouse ZAP-L (mouse) (UniProt Q3UPF5).
T2 sequence: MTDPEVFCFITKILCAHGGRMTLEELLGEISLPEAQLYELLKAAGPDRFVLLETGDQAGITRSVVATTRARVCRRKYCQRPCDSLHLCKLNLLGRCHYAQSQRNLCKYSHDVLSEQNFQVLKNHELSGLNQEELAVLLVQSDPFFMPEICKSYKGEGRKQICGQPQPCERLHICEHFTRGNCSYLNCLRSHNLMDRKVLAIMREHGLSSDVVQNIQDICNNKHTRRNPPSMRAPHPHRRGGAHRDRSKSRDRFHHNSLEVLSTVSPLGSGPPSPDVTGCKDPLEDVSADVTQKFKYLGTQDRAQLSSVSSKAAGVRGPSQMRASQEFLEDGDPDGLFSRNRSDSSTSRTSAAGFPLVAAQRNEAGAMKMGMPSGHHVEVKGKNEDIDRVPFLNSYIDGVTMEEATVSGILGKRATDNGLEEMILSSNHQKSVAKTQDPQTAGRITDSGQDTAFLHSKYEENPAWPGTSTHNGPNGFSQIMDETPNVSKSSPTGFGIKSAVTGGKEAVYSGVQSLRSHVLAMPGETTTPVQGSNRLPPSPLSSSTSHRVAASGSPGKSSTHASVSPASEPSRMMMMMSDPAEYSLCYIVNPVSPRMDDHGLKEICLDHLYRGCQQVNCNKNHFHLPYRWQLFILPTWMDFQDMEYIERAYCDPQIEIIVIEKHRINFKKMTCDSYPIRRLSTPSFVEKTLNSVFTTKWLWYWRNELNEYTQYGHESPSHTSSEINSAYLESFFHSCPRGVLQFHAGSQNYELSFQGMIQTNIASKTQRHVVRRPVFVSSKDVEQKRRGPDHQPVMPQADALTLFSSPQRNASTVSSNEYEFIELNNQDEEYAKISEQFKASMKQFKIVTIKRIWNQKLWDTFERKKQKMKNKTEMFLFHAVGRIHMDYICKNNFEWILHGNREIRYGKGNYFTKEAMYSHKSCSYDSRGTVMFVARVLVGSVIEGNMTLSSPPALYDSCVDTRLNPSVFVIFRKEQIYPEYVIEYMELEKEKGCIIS

The target of assay [5] is ZAP^E39K (human) (UniProt Q7Z2W4).
Assay [6] has as its target ZAP-L-FLAG (human) (UniProt Q7Z2W4). The source holds these as a separate data set.
Assay [7] has the same target. The source holds these as a separate data set.

Where two headings read alike, the source gives them in different places. These are yes or no findings as the source states them, for the method shown. Binding seen in cells or lysates may run through a third protein. Some results given as binding are weak or reduced against the parent protein; the word gives no strength. For part of these data: Where a sequence is shown, tags or fusion partners need not be part of it.

For the substance “Riplet with the SPRY domain of TRIM25 (Riplet-T25^SPRY) (from UniProt Q8IUD6 1-240; Q14258 404-630)”, in assay [1], the binding entry is given as “binds”. Consider “TRIM25 with the SPRY domain of Riplet (T25-Riplet^SPRY) (from UniProt Q14258 1-403; Q8IUD6 241-432)”, for which, in assay [2], the binding entry is on record as “binds”. “butyrophilin-like 9 (BTNL9)-HA (from UniProt Q6UXG8 35-535)”: in assay [3], the binding entry is recorded as “binds”. Consider “mouse TRIM25 (from UniProt Q61510 1-634) (enzyme)”, for which the binding entry in assay [4] was “binds”. On to “TRIM25^K469E (from UniProt Q14258 1-630) (enzyme)”, for which the binding result in assay [1] and in assay [5] was “binds” throughout. Turning to “TRIM25-HA (from UniProt Q14258 1-630) (enzyme)”, the binding result in assay [6], in assay [7] and in assay [1] was “binds” throughout.

Source of the values: doi:10.1101/2025.10.01.678329.
